Laboratory results: PubChem BioAssay AID1259289 (Sanger Institute, 2017)

Test: 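Kinase-wide silencing tested with three anchor drugs to reveal synergistic lethal pairs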 (primary screen)
System: human LS513 colorectal cancer cells
Knock-down reagent: siRNA pool against human genes
Challenge: anchor drug BYL719 at 1 µM, cetuximab at 5 µg/ml or trametinib at 10 nM, or DMSO vehicle alone; exposure time not given
Measured: 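Cell survival as a fraction of the non-targeting pool, replicate means; robust z-score for silencing alone under DMSO; synergy score for each of BYL719, cetuximab and trametinib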
Direction: robust z-score, siRNA alone (DMSO): higher = more viable cells; strongly negative means essential; viability with DMSO vs control: higher = more viable cells
Units: viability with DMSO vs control in fraction of control
Rule for the call: 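a gene counts as active if its DMSO-only robust z-score falls under -3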
Meaning of the calls: active = essential (knock-down alone); inactive = not essential
The whole screen tested 794 reagents; this is an unselected part. 16 of them (2%) were called active. 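Active marks cell loss from silencing alone; drug synergy shows only in the synergy scores, not the calls.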 Unmarked entries are inactive. Viability is capped at 1. Further read-outs or replicates are left out here. Not given: the amount of reagent, the time to read-out.

Which result is listed for HK3?
robust z-score, siRNA alone (DMSO): 0.561; viability with DMSO vs control: 1

With TAF1L, how do the results read?
robust z-score, siRNA alone (DMSO): -0.386; viability with DMSO vs control: 0.866

What is on record for PANK4?
robust z-score, siRNA alone (DMSO): -1.81; viability with DMSO vs control: 0.663

Which result is listed for FGFR3?
robust z-score, siRNA alone (DMSO): 0.561; viability with DMSO vs control: 1

What is on record for CAMK2N1?
robust z-score, siRNA alone (DMSO): -0.214; viability with DMSO vs control: 0.89

With NME2, what was measured?
robust z-score, siRNA alone (DMSO): 0.561; viability with DMSO vs control: 1

Which result is listed for CAMK2G?
robust z-score, siRNA alone (DMSO): 0.0302; viability with DMSO vs control: 0.925

How did the screen score CSNK1E?
robust z-score, siRNA alone (DMSO): 0.561; viability with DMSO vs control: 1

What did the screen give for PRKCB?
robust z-score, siRNA alone (DMSO): -0.686; viability with DMSO vs control: 0.823

For EIF2AK3, what was measured?
robust z-score, siRNA alone (DMSO): 0.355; viability with DMSO vs control: 0.971

How did the screen score PHKB?
robust z-score, siRNA alone (DMSO): 0.561; viability with DMSO vs control: 1

For EIF2AK4, what does the deposit list?
robust z-score, siRNA alone (DMSO): 0.561; viability with DMSO vs control: 1

For PFKFB1, what does the deposit list?
robust z-score, siRNA alone (DMSO): -2.89; viability with DMSO vs control: 0.511

Which result is listed for MAP4K5?
robust z-score, siRNA alone (DMSO): 0.139; viability with DMSO vs control: 0.94

For TAOK3, what does the deposit list?
robust z-score, siRNA alone (DMSO): 0.561; viability with DMSO vs control: 1

How did the screen score CDK12?
robust z-score, siRNA alone (DMSO): 0.561; viability with DMSO vs control: 1

How did the screen score GALK1?
robust z-score, siRNA alone (DMSO): -1.05; viability with DMSO vs control: 0.771

For DGKG, how do the results read?
robust z-score, siRNA alone (DMSO): 0.561; viability with DMSO vs control: 1

For OXSR1, what does the deposit list?
robust z-score, siRNA alone (DMSO): 0.561; viability with DMSO vs control: 1

For PIM3, how do the results read?
robust z-score, siRNA alone (DMSO): 0.561; viability with DMSO vs control: 1

With IGF1R, how do the results read?
robust z-score, siRNA alone (DMSO): 0.561; viability with DMSO vs control: 1

What did the screen give for PKIB?
robust z-score, siRNA alone (DMSO): 0.561; viability with DMSO vs control: 1

For GAK, what does the deposit list?
robust z-score, siRNA alone (DMSO): 0.561; viability with DMSO vs control: 1

With STK24, what was measured?
robust z-score, siRNA alone (DMSO): 0.561; viability with DMSO vs control: 1

What is on record for CDADC1?
robust z-score, siRNA alone (DMSO): 0.259; viability with DMSO vs control: 0.957

How did the screen score HASPIN?
robust z-score, siRNA alone (DMSO): -0.493; viability with DMSO vs control: 0.85

How did the screen score SLK?
robust z-score, siRNA alone (DMSO): 0.561; viability with DMSO vs control: 1

What did the screen give for NUP62?
robust z-score, siRNA alone (DMSO): 0.561; viability with DMSO vs control: 1

Copied from the list.
Under “viability with DMSO vs control”, EIF2AK4 reads 1
Result for STK24 under “viability with DMSO vs control”: 1
GALK1, viability with DMSO vs control = 0.771
For “robust z-score, siRNA alone (DMSO)”, PANK4 has -1.81
